Results on one molecule are retold here after patent US20140086904A1 (CHENGDU KANGHONG BIOTECHNOLOGIES, published 2014).

Chains of the proteins cited; added tags and fusions are not shown. Residues count along the entry.
UniProt P01375, residues 77-233: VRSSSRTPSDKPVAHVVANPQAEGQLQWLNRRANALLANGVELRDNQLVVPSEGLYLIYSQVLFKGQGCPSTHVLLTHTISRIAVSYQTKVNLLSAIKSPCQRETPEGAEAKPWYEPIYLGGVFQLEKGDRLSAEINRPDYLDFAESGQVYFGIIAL

No constants are given. Whether binding was seen depends on the method and setting. Some results given as binding are weak or reduced against the parent protein; the word gives no strength.

For experiment [1], the target named is human tumor necrosis factor-α (R & D Co., Catalog Number: 210-TA-050) (human) (UniProt P01375). As to the kind of experiment: ELISA, plate coated with human TNF-α (100 ng per well), 2-fold dilutions of Fab from 40 nM, HRP goat anti-human C-kappa, OD450. (In general: An ELISA detects its analyte on a solid surface through an enzyme-linked reagent.)
Experiment [2] has the same target. Nature of the experiment: ELISA on coated human TNF-α.

B1: KS-2E (Fab, V domains shown)
VH: QVQLVESGGGLVKPGGSLRLSCAASGFTFSNAWMNWVRQAPGKGLEWVAEIRSKSINSATHYAESVKGRFTISRDNSKKTLYLEMNSLRVEDTAVYYCSRNYYGSTYQYWGQGTTLTVSS
VL: EIVLTQSPDFQSVSPKETVTITCRASQTVHMSLHWYQQKPNQSPRLLIKYGSQSFSGVPSRFSGSGSGTDFTLTINSLEPEDAATYYCQQSHKWPFTFGSGTNVDIKR
notes: Humanized Fab (heavy chain Fd fragment and light chain), expressed in E. coli periplasm
Take B1: the binding entry in experiment [1] and in experiment [2] was “binds” in each case.
